The values that follow come from article PMC10930919.

The chains behind the UniProt entries cited, without tags or fusion partners.
UniProt Q00987: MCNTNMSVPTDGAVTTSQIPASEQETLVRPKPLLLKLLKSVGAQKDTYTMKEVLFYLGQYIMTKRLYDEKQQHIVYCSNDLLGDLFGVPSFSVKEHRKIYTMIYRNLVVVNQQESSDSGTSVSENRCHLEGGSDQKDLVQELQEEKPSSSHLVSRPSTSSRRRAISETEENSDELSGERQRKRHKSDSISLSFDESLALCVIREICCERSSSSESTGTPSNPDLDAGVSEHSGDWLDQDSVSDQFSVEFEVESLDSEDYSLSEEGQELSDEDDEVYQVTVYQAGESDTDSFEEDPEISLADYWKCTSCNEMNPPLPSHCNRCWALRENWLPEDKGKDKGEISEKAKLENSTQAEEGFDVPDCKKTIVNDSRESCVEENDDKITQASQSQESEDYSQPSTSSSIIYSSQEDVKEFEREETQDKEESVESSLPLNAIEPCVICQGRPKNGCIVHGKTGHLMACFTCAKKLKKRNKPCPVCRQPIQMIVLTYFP

For this experiment, the target named is T1, HIS-tagged Jun dimerization protein 2 (JDP2), WT (human) (UniProt Q8WYK2).
T1 sequence: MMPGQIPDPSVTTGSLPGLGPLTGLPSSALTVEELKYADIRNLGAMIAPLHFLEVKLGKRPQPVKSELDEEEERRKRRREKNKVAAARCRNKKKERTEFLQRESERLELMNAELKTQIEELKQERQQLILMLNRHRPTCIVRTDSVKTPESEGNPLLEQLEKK
Put plainly: pull-down; H1299 cells co-transfected with HIS-tagged JDP2 and MDM2, 48 h; whole cell lysates precipitated with Ni-beads to pull down HIS-tagged JDP2, blot with anti-MDM2.

These are yes or no findings as the source states them, for the method shown. In cells and extracts the contact can be indirect. Some results given as binding are weak or reduced against the parent protein; the word gives no strength. Where a sequence is shown, tags or fusion partners need not be part of it.

With MDM2 (from UniProt Q00987 1-491), the binding result is given as “binds”.
